The values below come from PMC10413113.

Results are given in words; binding and its absence hold for the method and conditions named. In cells and extracts the contact can be indirect. A yes stands for co-enrichment or nearness to the bait. Other partners may have been found.

B1: EFCAB7 (endogenous, MEFs) (protein, UniProt Q8VDY4 1-628)
chain: MASNPGSDAALGTQNPLLSGSPRTKKFPLTEQEVFYMNCRAAYLTIFKSSLENIISKDQLYLALQHAGRNPSQKTINKYWTPQTAKLNFDDFCIILSKEKPTSKAELLKSFKKLDVNDDGAILHSDLQKYLTKRGEKMTQEEVNAVINLADINANGKFDYVKFCKLYMTTSEQCLKTTLERLEADSKLRRQQFGSHMEGSPERGPSPAPKPSPRVIRKNDQETFSSKGDTSHALLSTTRKFKTSVSFTMTMSANSNQDSTLTEPNLKDWQCAQSKGCFFLEEDGEVVSHQYKMHIAQRSVLYLTIKPLYLSQVEGKRCPWLSVDTALYILKKNENPAEPQLMCFTELRNREVFGWTGELEAGIYWLIPSTTGCRLKKETKPVTEEAQLVHRDETGELSLTSEFRSTLSEIFEVIDLDGNGLISLEEYNFFELRTSGEKCDEDAWAVCRENFDTKKNELTRQGFMDLHLMEANDREGDPLDLWVTLHSMGYNKALELTEACPFVINIYAERCKPRIKVVHMEACSGQLEKAICKSVLDRSDAKVMDGYENIIVHTCNYDTWITSIIENKSDNKVIIHINNELSKNCVNNRGLNIFAVEVAPRSTMVCQHVMPLNEQEEWIYCCVYSLVA
B2: Uroplakin UPK3B (protein, UniProt Q80YF6 27-275)
chain: LDLIAYVPQITAWDLEGKITATTFSLEQPRCVFDEHVSTKDTIWLVVAFSNASRDFQNPQTAAKIPTFPQLLTDGHYMTLPLSLDQLPCEDLTGGSGGAPVLRVGNDFGCYQRPYCNAPLPSQGPYSVKFLVMDAAGPPKAETKWSNPIYLHQGKNPNSIDTWPGRRSGCMIVITSILSALAGLLLLAFLAASTTRFSSLWWPEEAPEQLRIGSFMGKRYMTHHIPPSEAATLPVGCEPGLDPLPSLSP
B3: Uroplakin UPK1B (protein, UniProt Q9Z2C6 1-260)
chain: MAKDDSTVRCFQGLLIFGHVIVGMCGIALTAECIFFVSDQHSLYPLLEATNNDDIFGAAWIGMFVGICLFCLSVLAIVGIMKSNRKILLAYFIMMFIVYGFEVASCITAATQRDFFTTNLFLKQMLMRYQNNSPPTNDDEWKNNGVTKTWDRLMLQDHCCGVNGPSDWQKYTSAFRVENNDADYPWPRQCCVMDKLKEPLNLDACKLGVPGYYHSQGCYELISGPMDRHAWGVAWFGFAILCWTFWVLLGTMFYWSRIEY
B4: EVC2 (endogenous, MEFs) (protein, UniProt Q8K1G2 30-1220)
chain: SGPRALPPSFPALGPGSPSRPGPAGPWASSQYSDISREARGPFENGVIFQKCSLVSGQSESQTMHVQLSVNNTRTPTSVNLSNLLVLDEITGLAVKESPGNNTQDGIQTFRKSFLQVGECYSVSYTASLDPTALGTGESLDLPARLIFQSPSQNRTQLKAPFTITVEEKIMVLPNHGLHAAGFIAAFLISLLLTVAALFFLARGRCLQGGMLSRCRIQHPENKLEPSPFTSANGVSQDLSLNDQVVAILTSEEPGSMLQALEELEIATLNQADADLEACRNQISKDIIALLMKNLVSGGHLSPQTERKMAAAFKKQFLLLENEIQEEYERKMLALTAECDLEMRKKTENQYQREMVAMEEAEEVLKRVSERSAAECSSLLRTLHGLEQEDMQRSLTLDQAEDFAQAHRQLAVFQRNELHSIVYTQIQSAVSKGELRPEVAKMMLQDYSKTQESVEELMDFFQATKRYHLSKRFGHREYLVQRLQAMETRVQGLLNTAATQLTSLIHKHERAGYLDEDQMETLLERAQTETFSIKQKLDNDLKQEKKRLHQRLITRRRRELLQKHKEQQKEQVSLGEASSTAEDAVQYLHQWRSVMAEHTAALEELQERLDQAALDDLRVLTVSLSEKATEELRRLQSTAMTQELLKRSAPWLFLQQILEEHSRESAARTTQLEAEERERGQELVQGVRQRLQQDALEAYTEEQAELRHWEHLVFMKLCCAAISLSEEDLLRVRQEAQGCFSQLDRSLALPRVRARVLQQQAQMAWREAEFRKLDQALAAPELQSKARKLRSKGRGKADLLKKNLEDKIRLFEERAPVELADQVRGELLQERVQRLEAQEAHFAESLVALQFQKVARAAETLSVYTALLSIQDLLLGELSESETLTKSACVQILESHRPELQELQELERKLEDQLVQQEEAEQQRVLESWQRWAADGPGLSEPEEMDPERQVSAILRQALNKGQKLLEQHQQRVREEWQNGAVLEDSLESIEADTMASLCSQGLRLVSYLSRMTMVPGSTLLRLLSVVLPAASQPQLLALLDAVSEKHSDHTAENESSGEQAQAEQSKRRKHQVWWKVLDSRFRADLVSQGLERMLWARQKKERILKKIYVPVQERVMFPGKGSWPHLSLEPIGELAPIPITGADAMDILNTGEKIFVFRSPREPEISLRVPPRRKKNFLNAKKANRALGLD
B5: Mesothelin (MSLN) (protein, UniProt Q61468 36-600)
chain: QTQTTKTSQEATLLHAVNGAADFASLPTGLFLGLTCEEVSDLSMEQAKGLAMAVRQKNITLRGHQLRCLARRLPRHLTDEELNALPLDLLLFLNPAMFPGQQACAHFFSLISKANVDVLPRRSLERQRLLMEALKCQGVYGFQVSEADVRALGGLACDLPGKFVARSSEVLLPWLAGCQGPLDQSQEKAVREVLRSGRTQYGPPSKWSVSTLDALQSLVAVLDESIVQSIPKDVKAEWLQHISRDPSRLGSKLTVIHPRFRRDAEQKACPPGKEPYKVDEDLIFYQNWELEACVDGTMLARQMDLVNEIPFTYEQLSIFKHKLDKTYPQGYPESLIQQLGHFFRYVSPEDIHQWNVTSPDTVKTLLKVSKGQKMNAQAIALVACYLRGGGQLDEDMVKALGDIPLSYLCDFSPQDLHSVPSSVMWLVGPQDLDKCSQRHLGLLYQKACSAFQNVSGLEYFEKIKTFLGGASVKDLRALSQHNVSMDIATFKRLQVDSLVGLSVAEVQKLLGPNIVDLKTEEDKSPVRDWLFRQHQKDLDRLGLGLQGGIPNGYLVLDFNVREAFS
B6: ANKZF1 (protein, UniProt Q80UU1 1-748)
chain: MAKPAGDAAVGSRSGELFLPSVSSSATSPAPSAAPAPASVSLLSLNGEAPLIRGLSLVSQAPGEALAWAPRTSCPGENTSSGGKVSPYSLEISEKLFCSACDQIFQNHQEQREHYKLDWHRFNLKQRLKNKPLLSASDFEQQSSTGDLSSISGSDDTDSSSEEDLLPLDEGRAESEKPNRPPGFYPHRVLFKNAQGQFLYAYRCVLGPHQIPPEKAELLLQNLQNGGPRYYVVLMAAAGHFAGAIFQGREVVAHKTFHRYTVRAKRGTAQGLQDAHGRASRSAGANLRRYNEAMLYKDVRNLLAGPIWSKALGEAETVLFRAPRSGRSLFFGGQGAPLQRDDPRLWDIPLTTRRPTFGELQRVLHKLTTLQVYDEDPREMVRFHSPETHWKPVREERKKDTEKEKTKVPSDANKPLGQDEEPLKQGSESQEEDGSEVELELVELTLGTLDLREFEVLPKRRRRRKKKERSQEQQCGAHGPLPQQPQDEPFSQPTQEVETPLDTLVYEAKAPGQPELWDTLLAACRAGEVEVLKLQLATGLVDPGVKSLLNAPLGSGGFTLLHAAAAAGRGLVVRLLLEAGADPTVQDSRARPPYTVAADKSTRNEFRRFMEKNLDAYDYNKARVPGPLTQEMEARQATRKKEQKAARRQREQQQRKQREQEEQEQEEQRRFAALSDREKRALAAERRLAAQLGAPSPPVPDSAVASAGRCWSCGVSLQGLIPFHYLDFSFCSTRCLRDHRSQAGRPSS
B7: MPP7 (protein, UniProt Q8BVD5 1-576)
chain: MPALATGSACDMGLYELLAALPAQLQPHVDSQEDLTFLWDVFGEKSLHSLVKIHEKLHCYEKQNPLPILHGAAALADDLTEELQNKLPNSEIRELLKLLSKPNVKALLSVHDTVAQKSYDPVLPPVPDDIDDEEDSVKIIRLVKNSEPLGATIKKDEQTGAITVARIMRGGAADRSGLIHVGDELREVNGIPVEDKRPEEIIKILSQSKGAITFKIIPSTKEETPSKEGKIFIKALFDYDPKEDKAIPCKEAGLSFRKGDILQIMSQDDVTWWQAKHEGDANPRAGLIPSKHFQERRLALRRPEIVVQPLKLSNTKSSGFRRSFRLSRKNKKINKSMYECKKSEQYDTADVPTYEEVTPYRRQIHDKYRLIVLVGPVGVGLNELKRKLLMSDAQHYGVIVPHTTRARRSQESDGVEYIFISKHLFETDVQINKFIEYGEYKNNYYGTSIDSVRSVLAKNKVCLLDVQPHTVKHLRTLEFKPYVIFIKPPSIERLRETRKNAKIISSRDDQGTAKPFTEEDFQEMIKSAQIMESQYGHLFDKIIINDDLTVAFNELKTTFDKLETDTHWVPVSWLHS

For the test, the target named is T1, EVC (endogenous mouse EVC protein) (mouse (endogenous in MEFs)) (UniProt P57680).
T1 sequence: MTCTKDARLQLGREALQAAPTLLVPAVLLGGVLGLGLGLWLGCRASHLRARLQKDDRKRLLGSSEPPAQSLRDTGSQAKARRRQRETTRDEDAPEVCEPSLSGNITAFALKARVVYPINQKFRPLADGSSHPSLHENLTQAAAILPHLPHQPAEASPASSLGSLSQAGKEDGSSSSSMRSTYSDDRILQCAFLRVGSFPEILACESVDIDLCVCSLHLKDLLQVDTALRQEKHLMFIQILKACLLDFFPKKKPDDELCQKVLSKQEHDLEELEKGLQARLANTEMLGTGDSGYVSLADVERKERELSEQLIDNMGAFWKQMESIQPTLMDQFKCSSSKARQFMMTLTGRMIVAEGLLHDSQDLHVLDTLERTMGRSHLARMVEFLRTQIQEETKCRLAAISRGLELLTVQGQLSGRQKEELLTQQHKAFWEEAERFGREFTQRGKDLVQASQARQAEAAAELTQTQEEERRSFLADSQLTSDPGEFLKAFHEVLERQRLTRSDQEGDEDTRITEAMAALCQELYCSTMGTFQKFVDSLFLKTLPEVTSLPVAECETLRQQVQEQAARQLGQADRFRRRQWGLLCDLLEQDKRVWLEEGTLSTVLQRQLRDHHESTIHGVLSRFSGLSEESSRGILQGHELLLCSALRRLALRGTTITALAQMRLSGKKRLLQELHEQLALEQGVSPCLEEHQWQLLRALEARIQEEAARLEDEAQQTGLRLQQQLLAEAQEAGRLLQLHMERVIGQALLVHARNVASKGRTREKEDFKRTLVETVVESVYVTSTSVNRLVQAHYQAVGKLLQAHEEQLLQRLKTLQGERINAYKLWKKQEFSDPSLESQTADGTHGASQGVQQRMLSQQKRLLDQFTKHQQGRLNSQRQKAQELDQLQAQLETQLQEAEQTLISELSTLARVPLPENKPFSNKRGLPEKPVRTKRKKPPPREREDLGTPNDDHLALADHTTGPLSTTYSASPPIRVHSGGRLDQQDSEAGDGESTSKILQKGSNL
Description: affinity purification with mass spectrometry; mouse monoclonal anti-EVC on Dynabeads; lysates of serum-starved Evc+/+ MEFs, Evc-/- MEFs as negative control; 1X IP buffer with 25 mM NaCl, overnight at 4°C; LC-ESI-MS/MS; n = 3.
With B1, the binding entry is listed as “binds”. To B2 belongs “binds”; to B3, “binds”; to B4, “binds”. To B5 belongs “binds”. To B6 belongs “binds”. In the case of B7, the binding result was “binds”.
